Test results reported in the supplement of paper PMC4604168 (melanoma cell lines).
This is one part of the list. Many values rest on one well or one pass, so single values are uncertain.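 Cells were imaged in 1,536-well plates, and nuclei stained with an antibody against cleaved PARP were counted against all DNA-stained nuclei to give the apoptosis fraction. Screening doses were chosen to leave most cells alive, and resting and induced cleaved-PARP levels differ strongly between cell lines.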

These molecules were tested on LB2518-MEL (assay: cleaved PARP positive nuclei fraction relative to DMSO control; melanoma cells; higher = more apoptosis). Settings: library dose: low library concentration; 72 h.

Row | Compound | cleaved PARP positive nuclei fraction [%]
1 | COc1ccc(C2=N[C@@H](c3ccc(Cl)cc3)[C@@H](c3ccc(Cl)cc3)N2C(=O)N2CCNC(=O)C2)c(OC(C)C)c1 [Nutlin-3] + C=CCn1c(=O)c2cnc(Nc3ccc(N4CCN(C)CC4)cc3)nc2n1-c1cccc(C(C)(C)O)n1 [MK1775] (first compound 0.1 µM, partner dose 0.02 µM) | 111
2 | Cn1sc(=O)n(Cc2ccccc2)c1=O + CO[C@@H]1[C@H](N(C)C(=O)c2ccccc2)C[C@H]2O[C@]1(C)n1c3ccccc3c3c4c(c5c6ccccc6n2c5c31)C(=O)NC4 [Midostaurin] (first compound 0.4 µM, partner dose 0.08 µM) | 92.8
3 | Cn1cnc2c(F)c(Nc3ccc(Br)cc3Cl)c(C(=O)NOCCO)cc21 [selumetinib] + Cc1cc(N2CCOCC2)cc2[nH]c(-c3c(NC[C@@H](O)c4cccc(Cl)c4)cc[nH]c3=O)nc12 [BMS536924] (first compound 0.015 µM, partner dose 0.2 µM) | 201
4 | CC(=O)O[C@@]12CO[C@@H]1C[C@H](O)[C@@]1(C)C(=O)[C@H](O)C3=C(C)[C@@H](OC(=O)[C@H](O)[C@@H](NC(=O)OC(C)(C)C)c4ccccc4)C[C@@](O)([C@@H](OC(=O)c4ccccc4)[C@H]21)C3(C)C [Docetaxel] + O=C(CCCCCCC(=O)Nc1ccccc1)NO [vorinostat] (first compound 0.0001 µM, partner dose 0.08 µM) | 128
5 | C[C@]1(O)C[C@@H](c2nc(-c3ccc4ccc(-c5ccccc5)nc4c3)c3c(N)nccn32)C1 + CO[C@@H]1[C@H](N(C)C(=O)c2ccccc2)C[C@H]2O[C@]1(C)n1c3ccccc3c3c4c(c5c6ccccc6n2c5c31)C(=O)NC4 [Midostaurin] (first compound 0.4 µM, partner dose 0.08 µM) | 299
